From paper PMC9508819, “Rbp95 binds to 25S rRNA helix H95 and cooperates with the Npa1 complex during early pre-60S particle maturation”
Results are given in words; binding and its absence hold for the method and conditions named. Binding seen in cells or lysates may run through a third protein. Some binding calls cover weakened binding; strength is not graded here.

What was measured:
[1] = biological target: T1, Arx1-TAP (S. cerevisiae) (UniProt Q03862); assay: co-IP; tandem-affinity purification from yeast lysate (IgG Sepharose, TEV elution, Calmodulin Sepharose, EGTA elution); 50 mM Tris-HCl pH 7.5, 100 mM NaCl, 1.5 mM MgCl2, 0.1% NP-40, 1 mM DTT; eluates analysed by western blotting; for Figure 8C from wild-type and Δrbp95 strains
T1 sequence: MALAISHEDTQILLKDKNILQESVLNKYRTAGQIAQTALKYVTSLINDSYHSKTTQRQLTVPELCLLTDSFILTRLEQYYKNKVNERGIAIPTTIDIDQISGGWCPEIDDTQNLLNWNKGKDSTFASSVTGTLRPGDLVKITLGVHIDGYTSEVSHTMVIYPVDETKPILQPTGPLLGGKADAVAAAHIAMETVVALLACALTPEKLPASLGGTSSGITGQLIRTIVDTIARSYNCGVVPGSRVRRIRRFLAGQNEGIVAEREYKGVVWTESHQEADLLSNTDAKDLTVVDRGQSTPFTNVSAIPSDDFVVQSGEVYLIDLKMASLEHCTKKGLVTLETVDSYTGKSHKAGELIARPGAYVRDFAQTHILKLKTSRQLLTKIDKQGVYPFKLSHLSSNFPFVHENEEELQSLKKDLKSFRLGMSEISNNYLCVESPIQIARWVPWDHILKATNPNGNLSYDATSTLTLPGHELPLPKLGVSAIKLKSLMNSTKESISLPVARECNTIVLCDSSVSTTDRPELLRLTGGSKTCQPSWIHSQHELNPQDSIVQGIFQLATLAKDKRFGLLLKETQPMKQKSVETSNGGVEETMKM

[2] = biological target: T2, Noc2-TAP (S. cerevisiae) (UniProt P39744); assay: as above
T2 sequence: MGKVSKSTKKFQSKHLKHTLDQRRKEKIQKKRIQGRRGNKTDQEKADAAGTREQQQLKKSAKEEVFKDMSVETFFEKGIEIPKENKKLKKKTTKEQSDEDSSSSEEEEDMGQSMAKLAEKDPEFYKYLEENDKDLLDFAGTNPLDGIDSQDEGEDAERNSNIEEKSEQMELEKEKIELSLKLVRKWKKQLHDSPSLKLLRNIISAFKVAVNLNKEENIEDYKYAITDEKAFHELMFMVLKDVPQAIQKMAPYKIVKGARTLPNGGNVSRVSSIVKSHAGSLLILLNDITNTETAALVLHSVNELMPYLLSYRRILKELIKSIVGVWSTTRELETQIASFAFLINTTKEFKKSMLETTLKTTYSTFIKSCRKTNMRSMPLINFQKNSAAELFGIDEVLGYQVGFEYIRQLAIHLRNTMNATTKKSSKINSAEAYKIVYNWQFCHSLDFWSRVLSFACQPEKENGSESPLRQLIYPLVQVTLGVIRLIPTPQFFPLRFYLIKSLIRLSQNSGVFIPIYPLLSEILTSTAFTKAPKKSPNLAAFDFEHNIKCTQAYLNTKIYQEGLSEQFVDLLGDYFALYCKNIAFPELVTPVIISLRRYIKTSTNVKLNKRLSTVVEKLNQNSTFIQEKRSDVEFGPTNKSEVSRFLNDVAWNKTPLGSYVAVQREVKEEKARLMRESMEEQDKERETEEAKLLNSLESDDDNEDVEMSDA

[3] = biological target: T2, Noc2-TAP (S. cerevisiae); assay: co-IP; Noc2-TAP purification from wild-type control and GAL1-RPL3, GAL1-NPA1 and GAL1-SSF1 Δssf2 strains grown in galactose (YPG) or shifted to glucose (YPD) for about 18 h; western blotting (Supplementary Figure S8)

binding [1]: binds weakly | binding [2]: binds | binding [3]: binds
B1: Rbp95 (Ycr016w) (protein, UniProt P25617 1-290)
chain: MSENHVPAWKRIALKRQTISSGDESKEKGQSNLIDDDPLNITTHLSTGNLTKKEKKRIINGESKSSTKKGKRVSKPGTKKKEKLSKDEKNSKKNKILKDQLRYLIEFFRTKSESKFPTGILELESVKENYGDSLIKDEPSESGVVEVWKFSKQKQNWLIKHFFNLDEIPSVYNDLLLLYFRDLQGKSKEELISKCKGKLKQWNDYVEDQETKIKALIAEDKASEPINGEEKEEGEKDGNAEQGKQKEVQDEQEEVQMPNKELVQRSLKLLEIWKNDDSEQIELKNFFVDV
